# Some of the results follow. The source does not settle which construct or isoform was used.
# Target: T1, ELF2 (UniProt Q15723)
# T1 sequence: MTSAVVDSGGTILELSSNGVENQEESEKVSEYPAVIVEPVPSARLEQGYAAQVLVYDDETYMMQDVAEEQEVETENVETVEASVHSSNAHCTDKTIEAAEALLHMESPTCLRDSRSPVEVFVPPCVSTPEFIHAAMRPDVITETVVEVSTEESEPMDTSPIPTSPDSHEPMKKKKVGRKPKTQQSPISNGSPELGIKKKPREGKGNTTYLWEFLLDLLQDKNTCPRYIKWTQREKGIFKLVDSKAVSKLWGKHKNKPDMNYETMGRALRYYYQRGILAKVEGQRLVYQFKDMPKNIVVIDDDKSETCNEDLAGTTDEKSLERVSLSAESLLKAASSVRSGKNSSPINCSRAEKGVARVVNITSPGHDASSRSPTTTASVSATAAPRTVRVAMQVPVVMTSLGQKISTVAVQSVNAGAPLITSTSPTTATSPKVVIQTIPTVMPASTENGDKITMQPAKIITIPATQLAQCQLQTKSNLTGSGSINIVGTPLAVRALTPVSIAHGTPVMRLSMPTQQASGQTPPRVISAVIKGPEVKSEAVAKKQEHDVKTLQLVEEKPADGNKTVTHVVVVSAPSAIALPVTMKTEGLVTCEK
# Assay: DAPPL (digital affinity profiling via proximity ligation, sequencing)
# Details: 10 mM Tris-HCl pH 7.5, 50 mM NaCl, 1 mM DTT, 4% glycerol, room temperature, 30 min; GST-TFs on glutathione beads, 16-mer random dsDNA library, 0.1% …; high values mean tight binding; double strand, one strand shown; scale: fold enrichment (6-mer frequency, TF over GST control)
row,Sequence,binding signal
1,CTCACT,1.57
2,TTAAAG,1.09
3,TTGTCC,1.39
4,TACTAG,0.957
5,CCCTCC,1.37
6,GGCTTC,1.94
7,CAAATA,1.14
8,TTACTG,1.03
9,ATACAG,1.2
10,GCCTCG,1.26
11,CTTTTA,1.25
12,TCTCTG,1.4
13,TTTACG,1.25
14,AATAGC,1.13
15,AATAAT,1.33
16,TCACGA,1.03
17,CTTCAA,1.27
18,CTCCTA,1.26
19,CTTTAA,1.22
20,CTGCAA,1.19

row,Sequence,binding signal
1,GTTTAC,1.12
2,ATGGAC,1.13
3,ATGGAT,1.06
4,ATGCAC,1.29
5,CGTCTC,1.41
6,GAATAA,1.14
7,TTGCCT,1.22
8,ATCGAA,1.09
9,CTTTTT,1.32
10,TCTGCT,1.23
11,CCGTCC,1.3
12,CAATTG,1.17
13,CCTGCA,1.21
14,TAACTC,1.14
15,TAAACG,1.12
16,TTACCC,1.39
17,TGCCGC,1.22
18,TTTAGG,1.02
19,TATCAT,1.11

# As entered above.
# binding signal, CAATTG is entered as 1.17
# binding signal, ATGGAC is entered as 1.13

# Source: publication PMC7862700
